Measurements: patent publication US12178842B2 (MERCK SHARP & DOHME LLC, priority 2019, dated 2024)

Experiment: general procedure: Fmoc solid-phase peptide synthesis; PS Rink-Amide MBHA; HATU/DIPEA (Reagent A); DIC/Oxyma (Reagent B)
Conditions: whole synthesis, scale 0.250 mmol

Substance: Int-A (Reagent A)
- crude mass: 399 mg

Substance: Int-A (Reagent B)
- crude mass: 300 mg
